From patent publication US7982053B2, “Peptide deformylase inhibitors” (GlaxoSmithKline LLC, priority 2005, dated 2011)
Counter-ions that a name gives are not always drawn. Like-named read-outs stand apart in the source and are kept apart here. Some entries share one result that the patent states for a list of compounds.

Molecular target: T1, bacterial PDF (S. aureus or E. coli PDF, Def1 enzyme) (UniProt P68826)
T1 sequence (P68826 1-183): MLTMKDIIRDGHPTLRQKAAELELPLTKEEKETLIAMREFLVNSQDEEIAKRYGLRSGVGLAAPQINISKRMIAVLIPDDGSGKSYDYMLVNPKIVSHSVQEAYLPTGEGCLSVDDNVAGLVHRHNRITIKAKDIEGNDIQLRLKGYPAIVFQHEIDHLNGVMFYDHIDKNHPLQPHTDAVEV
Experiment: Bacterial PDF Assay (formate dehydrogenase-coupled continuous enzyme-linked assay)
Assay type: biochemical

[1] = 25° C., substrate f-Met-Ala-Ser at KM, read-out: IC50 against bacterial PDF
[2] = read-out: IC50 against bacterial PDF, 25° C., substrate f-Met-Ala-Ser at KM

| SMILES | IC50 [1] [µM] | IC50 [2] [µM] |
| --- | --- | --- |
| O=CN(O)C[C@@H](CC1CCCC1)C(=O)N1CCC[C@H]1C(=O)NC(=O)OCc1ccccc1 [Example 22, 1-((2R)-3-cyclopentyl-2-{[formyl(hydroxy)amino]methyl}propanoyl)-N-{[(phenylmethyl)oxy]carbonyl}-L-prolinamide] | ≤ 0.1 |  |
| CC1(COC(=O)NC(=O)[C@H]2N(C(=O)[C@H](CC3CCCC3)CN(O)C=O)CCC2(C)C)COC1 [Example 119, 1-((2R)-3-cyclopentyl-2-{[formyl(hydroxy)amino]methyl}propanoyl)-3,3-dimethyl-N-({[(3-methyl-3-oxetanyl)methyl]oxy}carbonyl)-L-prolinamide] | ≤ 0.1 |  |
| CCNC(=O)NC(=O)[C@@H](NC(=O)[C@H](CC1CCCC1)CN(O)C=O)C(C)(C)C [Example 72, N^2-((2R)-3-cyclopentyl-2-{[formyl(hydroxy)amino]methyl}propanoyl)-N^1-[(ethylamino)carbonyl]-3-methyl-L-valinamide] | ≤ 0.1 |  |
| O=CN(O)C[C@@H](CC1CCCC1)C(=O)N1CCC[C@H]1C(=O)NC(=O)c1ccc(N2CCNCC2)cc1 [Example 48, 1-((2R)-3-cyclopentyl-2-{[formyl(hydroxy)amino]methyl}propanoyl)-N-{[4-(1-piperazinyl)phenyl]carbonyl}-L-prolinamide] | ≤ 0.1 |  |
| CC(C)(C)OC(=O)NCCCNC(=O)NC(=O)[C@@H]1CCCN1C(=O)[C@H](CC1CCCC1)CN(O)C=O [Example 146, 1-((2R)-3-cyclopentyl-2-{[formyl(hydroxy)amino]methyl}propanoyl)-N-({[3-({[(1,1-dimethylethyl)oxy]carbonyl}amino)propyl]amino}carbonyl)-L-prolinamide] | ≤ 0.1 |  |
| Cc1ccc(C(=O)NC(=O)[C@@H]2CCCN2C(=O)[C@H](CC2CCCC2)CN(O)C=O)cc1F [Example 12] |  | ≤ 0.1 |
| O=CN(O)C[C@@H](CC1CCCC1)C(=O)N1CCC[C@H]1C(=O)NC(=O)NC1Cc2ccccc2C1 [Example 139, 1-((2R)-3-cyclopentyl-2-{[formyl(hydroxy)amino]methyl}propanoyl)-N-[(2,3-dihydro-1H-inden-2-ylamino)carbonyl]-L-prolinamide] | ≤ 0.1 |  |
| CCNC(=O)NC(=O)[C@@H]1CCCN1C(=O)[C@H](CC1CCCC1)CN(O)C=O [Example 54, 1-((2R)-3-cyclopentyl-2-{[formyl(hydroxy)amino]methyl}propanoyl)-N-[(ethylamino)carbonyl]-L-prolinamide] | ≤ 0.1 |  |
| COC(=O)NC(=O)[C@@H](NC(=O)[C@H](CC1CCCC1)CN(O)C=O)C(C)(C)C [Example 75, N^2-((2R)-3-cyclopentyl-2-{[formyl(hydroxy)amino]methyl}propanoyl)-3-methyl-N^1-[(methyloxy)carbonyl]-L-valinamide] | ≤ 0.1 |  |
| COCCCNC(=O)NC(=O)[C@@H]1CCCN1C(=O)[C@H](CC1CCCC1)CN(O)C=O [Example 144, 1-((2R)-3-cyclopentyl-2-{[formyl(hydroxy)amino]methyl}propanoyl)-N-({[3-(methyloxy)propyl]amino}carbonyl)-L-prolinamide] | ≤ 0.1 |  |
| COC[C@@H](C)OC(=O)NC(=O)[C@H]1N(C(=O)[C@H](CC2CCCC2)CN(O)C=O)CCC1(C)C [Example 125, 1-((2R)-3-cyclopentyl-2-{[formyl(hydroxy)amino]methyl}propanoyl)-3,3-dimethyl-N-({[(1R)-1-methyl-2-(methyloxy)ethyl]oxy}carbonyl)-L-prolinamide] | ≤ 0.1 |  |
| O=CN(O)C[C@@H](CC1CCCC1)C(=O)N1CCC[C@H]1C(=O)NC(=O)NCCc1ccc2nccn2c1 [Example 134, 1-((2R)-3-cyclopentyl-2-{[formyl(hydroxy)amino]methyl}propanoyl)-N-{[(2-imidazo[1,2-a]pyridin-6-ylethyl)amino]carbonyl}-L-prolinamide formate] |  | ≤ 0.1 |
| CCCNC(=O)NC(=O)[C@@H]1CCCN1C(=O)[C@H](CC1CCCC1)CN(O)C=O [Example 76, 1-((2R)-3-cyclopentyl-2-{[formyl(hydroxy)amino]methyl}propanoyl)-N-[(propylamino)carbonyl]-L-prolinamide] | ≤ 0.1 |  |
| O=CN(O)C[C@@H](CC1CCCC1)C(=O)N1CCC[C@H]1C(=O)NC(=O)O[C@@H]1CCOC1 [Example 39, 1-((2R)-3-cyclopentyl-2-{[formyl(hydroxy)amino]methyl}propanoyl)-N-{[(3R)-tetrahydro-3-furanyloxy]carbonyl}-L-prolinamide] | ≤ 0.1 |  |
| O=CN(O)C[C@@H](CC1CCCC1)C(=O)N1CCC[C@H]1C(=O)NC(=O)NCCCCc1ccccc1 [Example 83, 1-((2R)-3-cyclopentyl-2-{[formyl(hydroxy)amino]methyl}propanoyl)-N-{[(4-phenylbutyl)amino]carbonyl}-L-prolinamide] | ≤ 0.1 |  |
| O=CN(O)C[C@@H](CC1CCCC1)C(=O)N1CCC[C@H]1C(=O)NC(=O)NC[C@@H](O)c1ccccc1 [Example 136, 1-((2R)-3-cyclopentyl-2-{[formyl(hydroxy)amino]methyl}propanoyl)-N-({[(2S)-2-hydroxy-2-phenylethyl]amino}carbonyl)-L-prolinamide] | ≤ 0.1 |  |

| SMILES | IC50 [1] [µM] | IC50 [2] [µM] |
| --- | --- | --- |
| O=CNc1ccc(CCNC(=O)NC(=O)[C@@H]2CCCN2C(=O)[C@H](CC2CCCC2)CN(O)C=O)cc1 [Example 147, 1-((2R)-3-cyclopentyl-2-{[formyl(hydroxy)amino]methyl}propanoyl)-N-[({2-[4-(formylamino)phenyl]ethyl}amino)carbonyl]-L-prolinamide] | ≤ 0.1 |  |
| CC(C)N1CCC(OC(=O)NC(=O)[C@@H]2CCCN2C(=O)[C@H](CC2CCCC2)CN(O)C=O)C1 (stereo partly drawn) [Example 42, 1-((2R)-3-cyclopentyl-2-{[formyl(hydroxy)amino]methyl}propanoyl)-N-({[1-(1-methylethyl)-3-pyrrolidinyl]oxy}carbonyl)-L-prolinamide] | ≤ 0.1 |  |
| O=CN(O)C[C@@H](CC1CCCC1)C(=O)N1CCC[C@H]1C(=O)NC(=O)NCCCCCO [Example 95, 1-((2R)-3-cyclopentyl-2-{[formyl(hydroxy)amino]methyl}propanoyl)-N-{[(5-hydroxypentyl)amino]carbonyl}-L-prolinamide] | ≤ 0.1 |  |
| Nc1ncc(CCNC(=O)NC(=O)[C@@H]2CCCN2C(=O)[C@H](CC2CCCC2)CN(O)C=O)cc1F [Example 114, N-({[2-(6-amino-5-fluoro-3-pyridinyl)ethyl]amino}carbonyl)-1-((2R)-3-cyclopentyl-2-{[formyl(hydroxy)amino]methyl}propanoyl)-L-prolinamide] | ≤ 0.1 |  |
| C=CCOC(=O)NC(=O)[C@@H]1CCCN1C(=O)[C@H](CC1CCCC1)CN(O)C=O [Example 29, 1-((2R)-3-cyclopentyl-2-{[formyl(hydroxy)amino]methyl}propanoyl)-N-[(2-propen-1-yloxy)carbonyl]-L-prolinamide] | ≤ 0.1 |  |
| O=CN(O)C[C@@H](CC1CCCC1)C(=O)N1CCC[C@H]1C(=O)NC(=O)OC1CCCCC1 [Example 27, N-[(cyclohexyloxy)carbonyl]-1-((2R)-3-cyclopentyl-2-{[formyl(hydroxy)amino]methyl}propanoyl)-L-prolinamide] | ≤ 0.1 |  |
| NC(=O)NC(=O)[C@@H]1CCCN1C(=O)[C@H](CC1CCCC1)CN(O)C=O [Example 128, N-(aminocarbonyl)-1-((2R)-3-cyclopentyl-2-{[formyl(hydroxy)amino]methyl}propanoyl)-L-prolinamide] | ≤ 0.1 |  |
| Cc1n[nH]c(C)c1CCNC(=O)NC(=O)[C@@H]1CCCN1C(=O)[C@H](CC1CCCC1)CN(O)C=O [Example 89, 1-((2R)-3-cyclopentyl-2-{[formyl(hydroxy)amino]methyl}propanoyl)-N-({[2-(3,5-dimethyl-1H-pyrazol-4-yl)ethyl]amino}carbonyl)-L-prolinamide] | ≤ 0.1 |  |
| O=CN(O)C[C@@H](CC1CCCC1)C(=O)N1CCC[C@H]1C(=O)NC(=O)NC1CCc2ccccc2C1O (stereo partly shown) [Example 130] | ≤ 0.1 |  |
| CC(C)CCNC(=O)NC(=O)[C@@H]1CCCN1C(=O)[C@H](CC1CCCC1)CN(O)C=O [Example 122, 1-((2R)-3-cyclopentyl-2-{[formyl(hydroxy)amino]methyl}propanoyl)-N-{[(3-methylbutyl)amino]carbonyl}-L-prolinamide] | ≤ 0.1 |  |
| O=CN(O)C[C@@H](CC1CCCC1)C(=O)N1CCC[C@H]1C(=O)NC(=O)c1ccc(-n2cccn2)cc1 [Example 21, 1-((2R)-3-cyclopentyl-2-{[formyl(hydroxy)amino]methyl}propanoyl)-N-{[4-(1H-pyrazol-1-yl)phenyl]carbonyl}-L-prolinamide] | ≤ 0.1 |  |
| CC(C)(C)[C@H](NC(=O)[C@H](CC1CCCC1)CN(O)C=O)C(=O)NC(=O)C1CCCC1 [Example 66, N^1-(cyclopentylcarbonyl)-N^2-((2R)-3-cyclopentyl-2-{[formyl(hydroxy)amino]methyl}propanoyl)-3-methyl-L-valinamide] | ≤ 0.1 |  |
| CC1(C)CCN(C(=O)[C@H](CC2CCCC2)CN(O)C=O)[C@@H]1C(=O)NC(=O)NC1CC1 [Example 110, 1-((2R)-3-cyclopentyl-2-{[formyl(hydroxy)amino]methyl}propanoyl)-N-[(cyclopropylamino)carbonyl]-3,3-dimethyl-L-prolinamide] | ≤ 0.1 |  |
| O=CN(O)C[C@@H](CC1CCCC1)C(=O)N1CCC[C@H]1C(=O)NC(=O)c1ccccc1F [Example 10, 1-((2R)-3-cyclopentyl-2-{[formyl(hydroxy)amino]methyl}propanoyl)-N-[(2-fluorophenyl)carbonyl]-L-prolinamide] |  | ≤ 0.1 |
| C[C@H](O)CNC(=O)NC(=O)[C@@H]1CCCN1C(=O)[C@H](CC1CCCC1)CN(O)C=O [Example 84, 1-((2R)-3-cyclopentyl-2-{[formyl(hydroxy)amino]methyl}propanoyl)-N-({[(2S)-2-hydroxypropyl]amino}carbonyl)-L-prolinamide] | ≤ 0.1 |  |
